The target of assay [1] is T1, extracellular domain of human IL-9 receptor α (hIL-9Rα) (human) (UniProt Q01113).
T1 sequence: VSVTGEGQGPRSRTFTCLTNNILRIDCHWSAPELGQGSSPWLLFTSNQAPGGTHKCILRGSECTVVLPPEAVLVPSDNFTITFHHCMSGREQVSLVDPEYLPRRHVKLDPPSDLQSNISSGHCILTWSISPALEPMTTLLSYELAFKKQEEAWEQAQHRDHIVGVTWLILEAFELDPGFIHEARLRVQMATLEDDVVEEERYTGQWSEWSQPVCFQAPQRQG
Put plainly: ITC.

Assay [2] deals with non-glycosylated binary hIL-9:hIL-9Rα complex (human) (UniProt P15248+Q01113). Briefly: SEC. A general note: SEC sorts molecules by how far they enter the pores of the column.

These are yes or no findings as the source states them, for the method shown. Some entries that bind do so weakly or less than the wild type.

B1: trimmed extracellular domain of human common gamma chain (hγc, residues 56-254), produced in Sf9 cells (receptor, UniProt P31785-1 56-254, looked up)
chain: PLPEVQCFVFNVEYMNCTWNSSSEPQPTNLTLHYWYKNSDNDKVQKCSHYLFSEEITSGCQLQKKEIHLYQTFVVQLQDPREPRRQATQMLKLQNLVIPWAPENLTLHKLSESQLELNWNNRFLNHCLEHLVQYRTDWDHSWTEQSVDYRHKFSLPSVDGQKRYTFRVRSRFNPLCGSAQHWSEWSHPIHWGSNTSKEN
Consider B1, for which the binding result in assay [1] is “no binding”; in assay [2], “binds weakly”.

Source of the values: publication doi:10.1101/2022.12.30.522308 (bioRxiv, 2022).
